This is one part of the list. Shown are side measurements of this screen, not its main read-out; they come without a call. Compounds called inactive in the main read-out are mostly missing here. Words in brackets tell the shape of the fitted curve; partial curves, single points and poor fits give uncertain potencies.

The values below come from PubChem BioAssay AID493014 (National Center for Advancing Translational Sciences (NCATS), 2011).

The nature of this experiment: qHTS Assay to Find Inhibitors of Chronic Active B-Cell Receptor Signaling. Particulars: ABC-DLBCL IkBa-CBG/CBR reporter, luminescence ratio (green luciferase fused to IkBa over red control in TMD8 lymphoma cells), 4 h; measured here: CBR red luminescence, cell number. From the text: NIH Molecular Libraries Probe Production Network [MLPCN] NIH Chemical Genomics Center [NCGC] MLPCN Grant: 1 R03 DA031086-01A1 PI Name: Dr. R. Eric Davis NCGC Assay Overview: Diffuse large B-cell lymphoma (DLBCL) is the most common category of non-Hodgkin lymphoma, with ~20,000 new cases per year in the United States. DLBCL should be regarded as a collection of different neoplasms. Microarray gene expression analysis has defined two principal types of DLBCL, named for their similarity to normal B cell stages or activation states: a germinal center B-cell (GCB) type, and an activated B-cell (ABC) type. In ABC-DLBCL, a constitutive high-level activity of the NF-kappaB family of transcription factors has been observed (1) and NF-kappaB target genes are more highly expressed in ABC primary tumors than in GCB tumors. Functional studies have shown a constitutive high-level activity of the IkappaB (inhibitor of kappa-B) kinase (IKK) complex. […] Further analysis of DLBCL primary tumors for NF-kappaB target gene expression imply that although CARD11 is required for constitutive IKK activity in all ABC-DLBCL lines, mutations in CARD11 may be the root cause of IKK activation only in lines or tumors with such mutations. In other words, CARD11 mutations may explain NF-kappaB activation in only 10% of ABC-DLBCL cases. […] This process has been termed 'chronic active BCR signaling' (CABS). The goal of this screen is to find small-molecule inhibitors of the CABS pathway found in ABC-DLBCL lines using a cell-based assay that measures IkappaBalpa stability, which has already been extensively validated in the OCI-Ly3 line (PubChem AID:445; REF: 4). […] The assay uses green (CBG68) and red (CBR) emitting beetle luciferases [Chroma-GloTM developed by Promega Corp.] where the green luciferase is fused to IkappaBalpha and the red luciferase is present in its native state. Both luciferase genes are stably present in the TMD8 human ABC DLBCL cell line, but their expression is under the control of tetracycline-inducible promoters. Following the addition of doxycycline to induce expression of the luciferases, the green luminescence in control cultures rises only slowly because the CBG fusion partner IkappaBalpha is targeted by IKK activity for rapid degradation. In contrast, green luminescence rises rapidly in the presence of proteasome inhibitors or IKK inhibitors. The rise in red luminescence of CBR is not affected by proteasome or IKK inhibitors, and serves as normalization for cell number and nonspecific effects. Compounds were screened as a concentration-titration series that ranged from 46 uM to 3 nM.
NCGC Assay Protocol Summary: Cells were seeded in 1536-well plates at 5000 cells/4uL in IMDM medium containing 0.5% FBS, w/o phenol red, 1% penicillin/streptomycin. Then, 23 nL of compounds or DMSO were delivered to each well using a pin tool. One uL 20ng/ml doxycycline was then dispensed into white solid 1536-well plates and the plates were incubated at 37C/5% C02 in a cell incubator for 4 hrs. Then 4 uL luminescent substrate mix (in-house prepared: 150 mM Tris-Cl, pH 7.6, 3 mM MgCl2, 1% Triton X-100, 5 mM DTT, 0.2 mM CoA, 0.15 mM ATP, 5 mM D-luciferin, final concentrations) was added to each well. The plate was incubated at r.t. for 10-15 min. The plates were measured on a ViewLux plate reader for green luminescence (540/20 nm filter) and red luminescence (618/8 nm filter). The green and red luminescent signals were corrected for red and green luminescence filter overlap using previously determined filter calibration constants (determined using the procedure outlined in the Promega Technical Manual; REF 4). The %Activity was determined from the ratio of corrected green/red luminescent values. MG132 were used as control. […] Red luminescent %Activity was normalized to the difference between red luminesence in basal cells (0%Activity) and zero luminescence (-100% Activity). […]
In general terms: qHTS replaces the single test concentration by a dilution series.
Regarding `COc1ccc(Br)cc1CN(C)CC(=O)Nc1cccc(S(=O)(=O)N2CCCC2)c1`, the AC50 was 23.1 µM [falling, single point].

For the molecule `Cc1ccc2occ(/C=N/NC(=O)c3ccccc3C)c(=O)c2c1`, the AC50 is 17.8 µM [falling, partial curve].

For `Cc1cc2ccc3ccccc3c2cc1CN(C)C`, the AC50 is 11.2 µM [falling, partial curve, poor fit].

As to `CCN1CCN(C(=S)NC(=O)c2cc(OC)c(OC)c(OC)c2)CC1`, the AC50 is 4.11 µM [rising, full curve, poor fit].

For `Cc1noc(C)c1COc1cccc(C(=O)Nc2ccc(OCc3ccccc3)cc2)c1`, the AC50 is 5.01 µM [falling, partial curve, poor fit].

For the molecule `CCOc1ccc(N(CC(=O)Nc2cccc(F)c2)S(=O)(=O)c2c(C)noc2C)cc1`, the AC50 was 25.1 µM [falling, single point].

On to `O=C(Nc1cccc(Cl)c1)Nc1ccc2c(c1)C(=O)OC2`, for which the concentration at half-maximal activity (AC50) was 7.31 µM [rising, partial curve, poor fit].

Regarding `Cc1c(NC(=O)CSc2ccc3ccccc3n2)c(=O)n(-c2ccccc2)n1C`, the AC50 was 29.1 µM [rising, single point].

Consider `CC1Cc2ccccc2N1C(=O)CN1C(=O)NC(C)(c2ccc3c(c2)OCCO3)C1=O` (configuration not stated), for which the AC50 is 20.6 µM [falling, partial curve, poor fit].

As for `CCOC(=O)[C@H]1[C@H]2COc3ccccc3[C@@H]2N2C(=O)c3ccc(Cl)cc3NC(=O)[C@@]12C`, the AC50 is 9.2 µM [falling, partial curve].

With `CCOc1ccc2[nH]c3c(NCC(C)C)ncnc3c2c1`, the AC50 is 3.98 µM [rising, full curve, poor fit].

Regarding `COc1cc(-c2nc(CN3CCCCC3CCNC(C)=O)c(C)o2)ccc1F` (configuration not stated), the half-maximal activity concentration (AC50) was 35.5 µM [rising, single point].

In the case of `C=CCn1c(=O)/c(=C2/Sc3cc(OC)ccc3N2C)s/c1=C1\C(=O)N(CC)C(=S)N1C`, the AC50 is 35.5 µM [rising, single point].

Regarding `C/C(=N/NC(=O)c1ccccn1)c1ccc(O)cc1`, the half-maximal activity concentration (AC50) is 15.8 µM [falling, partial curve, poor fit].

Consider `Cc1sc(NC(=O)c2ccccc2)c(C(=O)c2ccccc2)c1C`, for which the AC50 is 16.4 µM [rising, partial curve].

With `Cc1ccnc(NC(=O)c2ccc3c(c2)NC(=O)C(C)S3)c1` (configuration not stated), the AC50 is 1.46 µM [falling, full curve].

As for `O=C(Nc1ccc(NC(=O)C2CC2)nc1)c1ccccn1`, the AC50 is 8.91 µM [falling, partial curve, poor fit].

What is called AC50 is the concentration giving half of the maximal activity seen.
